Library screen at single concentrations

Amino acid sequences for entries named in this document (tags omitted). Residues count along the entry.
UniProt I6X8D2, whole entry: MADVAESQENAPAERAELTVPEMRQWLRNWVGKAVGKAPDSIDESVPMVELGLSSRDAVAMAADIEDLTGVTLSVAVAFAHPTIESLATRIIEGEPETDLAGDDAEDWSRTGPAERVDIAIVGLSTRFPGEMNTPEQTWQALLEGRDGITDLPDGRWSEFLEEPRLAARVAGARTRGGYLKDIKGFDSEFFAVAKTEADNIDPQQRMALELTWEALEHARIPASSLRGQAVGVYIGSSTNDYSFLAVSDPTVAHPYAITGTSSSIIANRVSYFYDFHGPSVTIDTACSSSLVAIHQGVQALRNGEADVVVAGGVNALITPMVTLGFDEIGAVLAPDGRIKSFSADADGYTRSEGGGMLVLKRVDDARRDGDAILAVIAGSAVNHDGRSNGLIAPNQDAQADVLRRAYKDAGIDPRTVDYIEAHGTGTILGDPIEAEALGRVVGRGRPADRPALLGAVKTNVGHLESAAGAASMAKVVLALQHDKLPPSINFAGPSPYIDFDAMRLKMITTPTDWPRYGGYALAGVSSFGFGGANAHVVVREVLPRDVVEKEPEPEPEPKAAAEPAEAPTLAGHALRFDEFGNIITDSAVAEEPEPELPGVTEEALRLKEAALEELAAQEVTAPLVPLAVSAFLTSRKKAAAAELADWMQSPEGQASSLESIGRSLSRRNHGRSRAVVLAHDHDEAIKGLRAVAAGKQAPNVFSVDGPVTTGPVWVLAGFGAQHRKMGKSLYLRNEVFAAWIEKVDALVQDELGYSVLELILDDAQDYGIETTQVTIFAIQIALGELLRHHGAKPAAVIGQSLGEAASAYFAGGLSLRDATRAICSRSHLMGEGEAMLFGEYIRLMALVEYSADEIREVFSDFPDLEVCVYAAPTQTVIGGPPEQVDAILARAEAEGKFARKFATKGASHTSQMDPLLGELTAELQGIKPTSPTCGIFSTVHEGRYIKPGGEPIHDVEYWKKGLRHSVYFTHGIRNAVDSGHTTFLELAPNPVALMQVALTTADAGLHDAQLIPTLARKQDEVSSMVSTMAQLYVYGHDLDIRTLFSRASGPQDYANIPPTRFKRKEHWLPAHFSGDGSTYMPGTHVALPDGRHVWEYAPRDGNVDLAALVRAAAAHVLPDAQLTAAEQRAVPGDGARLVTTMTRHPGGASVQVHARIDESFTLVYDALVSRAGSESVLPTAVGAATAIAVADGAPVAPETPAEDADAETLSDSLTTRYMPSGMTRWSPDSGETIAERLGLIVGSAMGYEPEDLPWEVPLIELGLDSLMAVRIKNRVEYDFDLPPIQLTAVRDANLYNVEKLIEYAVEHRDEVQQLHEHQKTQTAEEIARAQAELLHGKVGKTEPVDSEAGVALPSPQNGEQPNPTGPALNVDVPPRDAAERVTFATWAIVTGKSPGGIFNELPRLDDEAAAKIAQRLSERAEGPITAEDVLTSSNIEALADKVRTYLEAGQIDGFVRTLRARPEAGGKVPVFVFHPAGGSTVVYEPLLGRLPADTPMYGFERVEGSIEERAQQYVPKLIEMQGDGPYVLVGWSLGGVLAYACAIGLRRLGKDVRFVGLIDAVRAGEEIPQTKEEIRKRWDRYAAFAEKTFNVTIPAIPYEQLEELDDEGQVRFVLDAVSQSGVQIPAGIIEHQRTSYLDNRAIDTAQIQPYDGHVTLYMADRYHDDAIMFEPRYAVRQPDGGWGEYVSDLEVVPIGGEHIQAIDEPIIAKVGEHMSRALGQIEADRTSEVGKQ
UniProt P9WNZ1, whole entry: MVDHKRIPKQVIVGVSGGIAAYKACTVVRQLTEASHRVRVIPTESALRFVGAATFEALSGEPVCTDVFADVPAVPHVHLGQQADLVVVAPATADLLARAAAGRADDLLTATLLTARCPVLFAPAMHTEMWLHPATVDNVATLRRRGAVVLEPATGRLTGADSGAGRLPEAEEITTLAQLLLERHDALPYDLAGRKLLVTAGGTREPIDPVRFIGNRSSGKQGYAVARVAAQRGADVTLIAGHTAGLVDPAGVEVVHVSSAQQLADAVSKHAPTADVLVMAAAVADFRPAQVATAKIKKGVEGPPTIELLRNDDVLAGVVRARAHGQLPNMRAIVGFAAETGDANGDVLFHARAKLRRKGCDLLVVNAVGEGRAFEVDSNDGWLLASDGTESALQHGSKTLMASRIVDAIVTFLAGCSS
UniProt P9WFT3, whole entry: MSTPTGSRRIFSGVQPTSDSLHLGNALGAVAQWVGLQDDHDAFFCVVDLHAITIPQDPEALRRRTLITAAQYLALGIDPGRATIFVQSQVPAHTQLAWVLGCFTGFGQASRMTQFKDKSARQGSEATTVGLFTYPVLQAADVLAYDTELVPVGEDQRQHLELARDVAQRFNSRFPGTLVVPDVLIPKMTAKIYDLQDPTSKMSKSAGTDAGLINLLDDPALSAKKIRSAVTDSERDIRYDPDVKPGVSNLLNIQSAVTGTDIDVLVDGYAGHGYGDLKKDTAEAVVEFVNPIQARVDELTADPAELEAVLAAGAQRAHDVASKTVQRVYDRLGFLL
UniProt A4I591, 1-473: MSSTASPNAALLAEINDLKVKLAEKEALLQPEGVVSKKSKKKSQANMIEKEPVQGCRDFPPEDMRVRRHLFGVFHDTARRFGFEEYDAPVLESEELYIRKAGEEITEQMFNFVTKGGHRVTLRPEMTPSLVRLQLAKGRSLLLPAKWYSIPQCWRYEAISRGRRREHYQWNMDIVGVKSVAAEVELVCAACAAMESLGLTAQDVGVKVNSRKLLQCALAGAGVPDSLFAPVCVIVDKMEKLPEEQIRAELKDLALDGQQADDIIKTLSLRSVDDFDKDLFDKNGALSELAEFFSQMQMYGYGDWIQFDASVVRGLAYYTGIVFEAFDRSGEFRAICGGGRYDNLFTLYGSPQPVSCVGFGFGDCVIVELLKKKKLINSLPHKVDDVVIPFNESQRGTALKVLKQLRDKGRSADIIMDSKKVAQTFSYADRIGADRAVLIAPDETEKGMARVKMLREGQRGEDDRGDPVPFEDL
UniProt Q4DA54, 1-478: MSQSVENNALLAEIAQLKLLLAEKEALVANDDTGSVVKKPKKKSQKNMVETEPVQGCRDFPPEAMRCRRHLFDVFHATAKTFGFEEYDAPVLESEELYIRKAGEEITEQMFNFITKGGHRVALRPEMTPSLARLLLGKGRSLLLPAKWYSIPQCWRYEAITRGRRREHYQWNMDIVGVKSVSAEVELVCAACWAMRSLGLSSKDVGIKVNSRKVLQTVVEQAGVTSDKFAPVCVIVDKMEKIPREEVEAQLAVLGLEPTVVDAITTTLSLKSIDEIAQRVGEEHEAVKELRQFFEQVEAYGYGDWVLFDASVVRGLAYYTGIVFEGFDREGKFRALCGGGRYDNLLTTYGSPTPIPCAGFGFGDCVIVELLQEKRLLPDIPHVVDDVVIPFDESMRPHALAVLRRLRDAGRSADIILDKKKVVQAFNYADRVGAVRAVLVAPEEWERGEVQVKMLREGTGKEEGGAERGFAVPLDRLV

Data taken from ChEMBL document CHEMBL3988442, “University of Dundee, Small-Polar-MMV Screening Library” (2021).

The filed quantity is “Percent Effect” (%).
The record does not define 0% and 100%; most values in the screen are far below 50% and negative numbers occur (in some assays of this library far below -100).
The compounds are a random part of those screened.
A dash means the value is not listed here; it may have been measured.

A: 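Polyketide synthase Pks13, Mycobacterium tuberculosis (UniProt I6X8D2). Enzyme assay of the thioesterase domain of polyketide synthase 13; the read-out is not stated. Tested at 30 µM. Higher reads as stronger inhibition (inferred from which compounds were picked for retests). About 67,000 compounds were tested under these conditions; 0.46% (about 300) showed 50% or more at least once.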
B: 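Assay of Toxoplasma gondii numbers, read through their beta-galactosidase reporter with a colour substrate. Tested at 10 µM. The record gives no direction; the compounds picked for IC50 retests had high values, so higher reads as fewer parasites. About 67,000 compounds were tested under these conditions; 0.38% (about 260) showed 50% or more at least once.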
C: 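Enzyme assay of CoaBC with a phosphate dye (Biomol Green) read at 650 nm. Target: Coenzyme A biosynthesis protein CoaBC, Mycobacterium tuberculosis (UniProt P9WNZ1). Tested at 30 µM. Direction is inferred from only a few compounds that gave an IC50; most scored high, so higher reads as stronger inhibition. Most strong results did not repeat in a second test. Of about 67,000 compounds tested this way, about 40 (0.06%) reached 50% or more in at least one test.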
D: 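Enzyme assay of tryptophanyl-tRNA synthetase; the read-out is not stated. Target: Tryptophan-tRNA ligase, Mycobacterium tuberculosis (UniProt P9WFT3). Concentration: 10 µM. Direction is not recorded; retested compounds ran higher, which suggests that high means inhibition. Of about 65,000 compounds tested this way, about 64 (0.098%) reached 50% or more in at least one test.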
E: 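Histidine-tRNA ligase, Leishmania infantum (UniProt A4I591). Enzyme assay of histidyl-tRNA synthetase; the read-out is not stated. Tested at 30 µM. The record gives no direction; compounds that gave an IC50 in retests scored well above the rest, so higher reads as stronger inhibition. The assay is labelled LdHisRS but filed under L. infantum. About 69,000 compounds were tested under these conditions; 0.6% (about 410) showed 50% or more at least once.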
F: 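Histidine-tRNA ligase, Trypanosoma cruzi CL Brener (UniProt Q4DA54). Enzyme assay of histidyl-tRNA synthetase; the read-out is not stated. Compounds at 30 µM. The record gives no direction; compounds that gave an IC50 in retests scored well above the rest, so higher reads as stronger inhibition. Of about 69,000 compounds tested this way, about 31 (0.045%) reached 50% or more in at least one test.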

| # | Compound | A | B | C | D | E | F |
|---|---|---|---|---|---|---|---|
| 1 | `CCc1nccn1CCC(=O)N1CCCC1c1cncc(NC)n1` (centres unmarked) | 10.48 | 11.3 | -0.7177 | 0.3906 | -1.439 | 2.682 |
| 2 | `CS(=O)(=O)N1CCCC12CCCN(C(=O)c1ccc3[nH]ccc3c1)C2` (centres unmarked) | -22.24 | 1.59 | 10.75 | 3.823 | 11.84 | 2.174 |
| 3 | `CC(C)N1Cc2c(C(=O)N3CCOCC3)nn(C)c2C1.O=C(O)C(F)(F)F.O=C(O)C(F)(F)F` | - | 6.724 | - | - | - | - |
| 4 | `Cc1nnn2c1COC(CNCc1ccncc1)C2` (centres unmarked) | -30.71 | 9.512 | 2.748 | -4.017 | 12.28 | 5.376 |
| 5 | `N#Cc1ccc(OCCOc2ccccc2C(=O)N2CCOCC2)cc1` | -23.17 | 12.55 | 5.909 | 1.243 | 14.15 | -1.674 |
| 6 | `CCc1nnsc1C(=O)N1CCCN(Cc2cnn(C)c2)CC1` | -10.57 | -2.54 | 5.385 | 0.3909 | 5.333 | -1.887 |
| 7 | `COc1cccc(CC(C)NC(=O)c2ccc(CNC(C)=O)cc2)c1` (centres unmarked) | -12.99 | -9.767 | 2.163 | -1.256 | -6.25 | 7.595 |
| 8 | `O=C(O)C(F)(F)F.[H][C@@]12COC[C@]1(c1nc(C)no1)CN(C(C)C)C2` | - | -0.8368 | - | - | - | - |
| 9 | `CN(C)c1ncccc1CNC(=O)CCNc1ncccn1` | -2.698 | -12.47 | 5.765 | -3.307 | 20 | 1.587 |
| 10 | `CC(C)c1noc(CCCC(=O)N2CCN(Cc3cccnc3)CC2)n1` | -9.074 | 5.073 | 8.418 | -11.98 | 12.73 | 1.754 |
| 11 | `CCCc1cc(N2CCC(NCCc3ccc(O)cc3)CC2)nc(C)n1` | -12.76 | -13.28 | 1.615 | -0.2894 | 12.5 | -8.696 |
| 12 | `CC(c1ccon1)N(C)C(=O)C1CCN(C(=O)C2CCC2)CC1` (centres unmarked) | 6.084 | -11.05 | 0.4914 | 2.436 | 17.2 | 0 |
| 13 | `[H][C@@]12CN(C(=O)NC3CCCCC3)C[C@]1(C(=O)O)CN(c1cnccn1)C2` | - | -6.09 | - | - | - | - |
| 14 | `CO[C@H]1C[C@@H](O)C12CCN(Cc1nc(C(F)(F)F)no1)CC2` | -14.24 | -6.257 | 2.963 | -3.446 | 6.993 | 9.453 |
| 15 | `CC(C)NC(=O)N1CCC2(CC(=O)N(c3cccc(C#N)c3)C2)C1` (centres unmarked) | -4.572 | -14.48 | -0.9009 | -1.822 | -11.76 | 6.011 |
| 16 | `CC(=O)c1sc(C(NC(=O)c2ccccc2)C2CC2)nc1C` (centres unmarked) | 0.4916 | -37.89 | -0.7299 | 5.592 | 22.22 | 7.879 |
| 17 | `Cn1cc(C(=O)N2CCCC(CN3CCCC3=O)C2)cn1` (centres unmarked) | -0.9642 | -2.419 | 3.735 | - | 20 | -3.39 |
| 18 | `CC(C)(C)NC(=O)C1CSCN1S(=O)(=O)c1ccc(F)cc1` (centres unmarked) | -12.55 | -4.556 | 3.655 | -3.411 | 13.51 | 6.391 |
| 19 | `CCc1cc(O)n2nc(C3CCN(C(=O)c4ccccn4)CC3)cc2n1` | 5.169 | 21.52 | 4.192 | -3.034 | 11.27 | 5.303 |
| 20 | `O=C(C1CCC1)N1CCN(Cc2ccsc2)[C@H]2CS(=O)(=O)C[C@H]21` | -15.87 | - | -3.636 | -6.214 | 10.38 | 5.858 |
| 21 | `Cc1cc(C2CCCN(Cc3ncc(C(C)C)o3)C2)n[nH]1` (centres unmarked) | -0.8911 | -5.676 | 2.445 | -0.7048 | 8.065 | 5.155 |
| 22 | `Cc1cc(N2CCOC(c3ccccn3)C2)nc(N)n1` (centres unmarked) | -0.2872 | 8.755 | 6.053 | 0.9791 | 8.392 | 0.565 |
| 23 | `CN1CCC(Cc2noc(CCc3nc4ccccc4nc3O)n2)CC1` | -35.15 | 7.099 | -27 | 3.862 | 22.86 | -1.02 |
| 24 | `O=C(O)C(F)(F)F.O=C(O)C(F)(F)F.[H][C@@]12COC[C@@H](CC(=O)N3CCOCC3)[C@]1([H])CN(Cc1ccccn1)C2` | - | -8.341 | - | - | - | - |
| 25 | `CC(C)Oc1ncccc1CNC(=O)N1CCC1` | -2.899 | -1.819 | 2.296 | -3.719 | -3.636 | 3.509 |
| 26 | `CCn1c(CN(C)C)nnc1C1CCN(Cc2ccc(Cl)c(F)c2)CC1` | -5.806 | -6.002 | 6.393 | -0.3623 | 16.8 | -1.508 |
| 27 | `Cc1ccc(CN(C)C(=O)c2cccc(NC(N)=O)c2)o1` | -7.532 | 21.64 | 0.7453 | 0.1651 | 14.29 | 3.59 |
| 28 | `COc1ccc(C[C@H]2CN(c3nnc(C)s3)CC[C@H]2OC)cc1` | -73.57 | - | 10.65 | -7.342 | 33.33 | 5.473 |
| 29 | `Cc1nc(C(=O)N2CC[C@@]3(C[C@@H](NS(C)(=O)=O)CCO3)C2)cs1` | -0.002668 | -47.54 | 1 | 3.127 | 14 | 12.75 |
| 30 | `Cc1cc(NC(N)=O)ccc1OCC(F)(F)F` | -40.11 | 5.621 | -5.372 | -3.191 | 8 | 4.891 |
| 31 | `CC(=O)N(C)c1nc(CN2CCCC2c2cnn(C)c2)cs1` (centres unmarked) | -19.01 | 3.597 | 0 | -3.553 | 11.86 | 2.857 |
| 32 | `CN(C)C(=O)NCc1ncn2c1CN(Cc1cccs1)CCC2` | -35.41 | - | -0.4167 | -2.186 | 9.402 | 2.674 |
| 33 | `O=S(=O)(Nc1ncccc1F)c1cc(Cl)cc2c1OCC2` | -37.31 | -24.74 | -1.927 | -0.0748 | 15.52 | 2.618 |
| 34 | `Cc1nc[nH]c1CN1CCCC12CCN(c1ccccn1)CC2` | -38.4 | 10.92 | 9.506 | 1.732 | 18.99 | 2.155 |
| 35 | `Fc1ccc(-c2cnc(C3CCNCC3)cn2)cc1` | 1.486 | 32.21 | 4.205 | -0.4147 | 8.696 | 7.576 |
| 36 | `CCn1ncc(-c2cc(C(F)F)n3nc(CCC(=O)O)nc3n2)c1C` | 15.62 | 11.33 | 0.1227 | - | 8.247 | 5.78 |
| 37 | `CCOC(=O)CN(C)C1CCc2ccccc21` (centres unmarked) | -47.46 | -24.8 | 6.21 | 21.28 | 17.86 | 3.55 |
| 38 | `[H][C@@]12CCCO[C@]1([H])[C@@H](Oc1cccnc1)CN2C(=O)c1ccnnc1` | - | -8.173 | - | - | - | - |